Laboratory results published in patent US20230416247A1, “DRUG-LIKE MOLECULES AND METHODS FOR THE THERAPEUTIC TARGETING OF MICRORNA-21” (University of Washington, priority 2020, published 2023).
Entries after “also recorded” stand apart in the source; their conditions may differ. For at least one compound, name, drawing or mass did not settle the structure. Some entries share one result that the patent states for a list of compounds.

Key:
Format in all cases: cell-based, human
[1] = tested on: gastric (AGS) cancer cell line; experiment: MTS proliferation assay, AGS; conditions: for time after which viability is decreased to a statistically significant extent: MTS; for viability (anti-proliferative activity), MTS: as a function of time, triplicate
Source text: (§1) FIGS. 10A-10F compare anti-proliferative activity of 10 nmoles of compounds −0045 and −0052 against gastric (AGS) (FIGS. 10B and 10C, respectively) and pancreatic (ASPC1) (FIGS. 10E and 10F, respectively) cancer cell lines, as measured as a function of time and compared to palbociclib (−000) (FIGS. 10A-AGS; and 10D-ASPC1) using standard MTS assays in the indicated cell lines; results were in triplicate with reported experimental uncertainty.
(§2) FIGS. 11A-11F compare anti-proliferative activity of 5 nmoles of compounds −0045 and −0052 against gastric (AGS) (FIGS. 11B and 11C, respectively) and pancreatic (ASPC1) (FIGS. 11E and 11F, respectively) cancer cell lines, as measured as a function of time and compared to palbociclib (−000) (FIGS. 11A-AGS; and 11D-ASPC1), using standard MTS assays in the indicated cell lines; results were in triplicate with reported experimental uncertainty.
(§3) The anti-proliferative activity of compounds −0045 and −0052 in two cell lines characterized by high levels of miR-21 (gastric adenocarcinoma (AGS) and pancreatic (ASPC1) cancer origin) was determined. These experiments were conducted in a double-blind format, without knowledge of the identity or binding activity of the compounds, to avoid any unintentional bias. […] Viability in the presence of both palbociclib and compound −0052 is decreased after approximately 72-96 hrs to a statistically significant extent (data points marked with asterisks are statistically significant).
(§4) Cell line maintenance. Using the Cancer Cell Line Encyclopedia (CCLE), in-house cancer cell lines were screened to identify cancer and tissue types with varying levels of miR-21 expression. Experiments were performed using the human-derived cell lines AGS (gastric cancer) and AsPC-1 (pancreatic cancer). Cell lines were obtained from the American Type Culture Collection and maintained per instructions from the supplier. AGS were cultured in F12K medium supplemented with 10% FBS. AsPC-1 were cultured in RPMI, with 10% FBS added. All cells were kept at 37° C. in a humidified atmosphere of 5% CO2 and underwent regular mycoplasma testing. All experiments were conducted when cells were 70-80% confluent.
(§5) Proliferation assay. The impact of the compound on cellular proliferation was assessed, with 5,000 cells in each cell line seeded in replicates of 6 in a 96 well plate and treated with DMSO or with compounds. After 48 hours, cells were treated with the MTS reagent and optical density was read to generate dose-response curves.

[2] = tested on: pancreatic (ASPC1) cancer cell line; experiment: MTS proliferation assay, ASPC1; conditions: for time after which viability is decreased to a statistically significant extent: ASPC1, MTS; for viability (anti-proliferative activity), MTS: as a function of time, triplicate
Source text: as §1, §2, §3, §4, §5

[3] = tested on: mature miR-21 and pre-miR-21 in AGS cells; experiment: qRT-PCR of mature miR-21 and pre-miR-21 in AGS cells; conditions: 10 nmoles, 48 hours, relative to DMSO control
Description: (§6) FIGS. 13A-13D compare levels of mature miR-21 and pre-mi-21 measured in gastric adenocarcinoma (AGS) (FIGS. 13A and 13B, respectively) and pancreatic cancer cell line (ASPC 1) (FIGS. 13C and 13D, respectively), normalized to internal controls (U6 or U8 snRNA), in the presence of 10 nmoles of palbociclib (used here as a negative control, not expected to affect microRNA levels) and compounds −0045 and −0052, 48 hours after incubation, relative to DMSO control, and measured by standard qRT-PCR. Statistically significant changes are labeled with asterisks.
(§7) Levels of mature miR-21 and its precursor pre-miR-21 were measured in gastric carcinoma (ASG) and pancreatic (ASPC1) cancer cell lines under conditions where we observed a decrease in proliferation (FIGS. 13A-13D), using the same blind format described above.
(§8) Cell line maintenance. Using the Cancer Cell Line Encyclopedia (CCLE), in-house cancer cell lines were screened to identify cancer and tissue types with varying levels of miR-21 expression. […]
(§9) Quantitative real time PCR analysis. […] RNA concentration was assessed with the NanoDrop ND-1000 spectrophotometer (ThermoFisher Scientific). […] Expression of miR-21 was assessed utilizing the TaqMan microRNA assay (Applied Biosystems). […] All experiments were performed in triplicate, with all samples normalized to the internal controls and relative expression levels calculated using the 2^ΔΔCt method.

[4] = tested on: mature miR-21 and pre-miR-21 in ASPC1 cells; experiment: qRT-PCR of mature miR-21 and pre-miR-21 in ASPC1 cells; conditions: ASPC1, 10 nmoles, 48 hours, relative to DMSO control
Description: as §6, §7, §8, §9

O=c1[nH]c(Nc2ccc(N3CCNCC3)cn2)nc2cnccc12 [Compound 30]
time after which viability is decreased to a statistically significant extent [1]: 72 to 96 h | time after which viability is decreased to a statistically significant extent [2]: 72 to 96 h

CC(=O)c1c(C)c2cnc(Nc3ccc(N4CCNCC4)cn3)nc2n(C2CCCC2)c1=O [Palbociclib, reference compound]
viability (anti-proliferative activity), MTS ([1]; 5 nmoles of compound): reduce the viability of both cell lines to a statistically significant extent | viability (anti-proliferative activity), MTS ([1]; 10 nmoles of compound): reduce the viability of both cell lines to a statistically significant extent | time after which viability is decreased to a statistically significant extent [1]: 72 to 96 h | cell killing activity, MTS over 6 days ([1]; both concentrations tested (10 and 5 nmols), double-blind): Cell killing activity | change in mature miR-21 levels [3]: less significant changes; also recorded: does not significantly affect miR-21 levels | viability (anti-proliferative activity), MTS ([2]; ASPC1, 5 nmoles of compound): reduce the viability of both cell lines to a statistically significant extent | viability (anti-proliferative activity), MTS ([2]; ASPC1, 10 nmoles of compound): reduce the viability of both cell lines to a statistically significant extent | time after which viability is decreased to a statistically significant extent [2]: 72 to 96 h | cell killing activity, MTS over 6 days ([2]; ASPC1, both concentrations tested (10 and 5 nmols), double-blind): Cell killing activity | change in mature miR-21 levels [4]: less significant changes; also recorded: does not significantly affect miR-21 levels
